Data: patent US20060269907A1, “Decontamination of biological fluids using diphenylpyrilium compounds” (priority 2003, published 2006)

Tested on: RBCs

Cc1cc(-c2ccc(N(C)C)cc2)cc(-c2ccc(N(C)C)cc2)[s+]1.[I-] [Compound 2, 2′,4′-bis(4-N,N-dimethylaminophenyl) 6′-methylthiopyrilium iodide] was tested, and the glucose utilization rate (n=4) was 6.20 ± 0.97 mM/day, the lactose production (n=4) was 26.7 ± 1.9 mM and the “extracellular pH” value (n=10) was 6.48±0.07.
